{"source": "patent US20090215889A1", "about": "“Novel Use of Zinc Gluconate for Treating Hydradenitis Suppurativa” (LABCATAL, priority 2005, published 2009)", "origin": "cited, not measured here", "system": "suppurative hidradenitis", "conditions": "given at the start of an outburst in the hope of stopping it; cited from earlier work", "note": "For at least one compound, name, drawing or mass did not settle the structure."}
{"smiles": "CCC[C@@H]1C[C@@H](C(=O)N[C@@H]([C@H]2O[C@H](SC)[C@H](O)[C@@H](O)[C@H]2O)[C@H](C)Cl)N(C)C1", "note": "[clindamycin]", "values": [{"measurement": "results of short-term treatment", "value": "relatively mediocre results"}]}
